Assay in all cases: affinity purification with mass spectrometry; antibody-based affinity co-IP with limited cross-linking from transgenic G. lamblia trophozoites expressing the epitope-tagged full-length bait; protein input 0.8 mg/ml total protein; gel lanes analysed by MS; hits filtered against a control co-IP from non-transgenic wild-type parasites (Scaffold4; high stringency 95_2_95, low stringency 95_2_50, FDR 0%)

The chains behind the UniProt entries cited, without tags or fusion partners. Where a name states a change or a piece, a line headed by the entry shows the natural chain unless it says otherwise.
UniProt A8B341: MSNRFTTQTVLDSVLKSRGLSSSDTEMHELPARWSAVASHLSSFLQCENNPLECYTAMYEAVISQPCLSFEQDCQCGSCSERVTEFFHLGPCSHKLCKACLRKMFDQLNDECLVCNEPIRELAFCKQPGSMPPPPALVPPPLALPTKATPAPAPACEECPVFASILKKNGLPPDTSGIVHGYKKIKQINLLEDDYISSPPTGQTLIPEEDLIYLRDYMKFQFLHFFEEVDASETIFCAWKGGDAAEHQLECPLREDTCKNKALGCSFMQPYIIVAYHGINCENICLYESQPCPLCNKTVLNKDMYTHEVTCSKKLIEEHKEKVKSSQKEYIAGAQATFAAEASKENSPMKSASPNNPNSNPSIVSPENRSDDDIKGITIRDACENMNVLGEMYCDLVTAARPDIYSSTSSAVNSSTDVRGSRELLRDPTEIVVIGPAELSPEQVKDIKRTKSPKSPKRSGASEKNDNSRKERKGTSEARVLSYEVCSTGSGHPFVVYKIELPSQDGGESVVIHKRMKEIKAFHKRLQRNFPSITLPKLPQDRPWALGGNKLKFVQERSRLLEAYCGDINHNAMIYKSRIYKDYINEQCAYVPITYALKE
UniProt A8BII4: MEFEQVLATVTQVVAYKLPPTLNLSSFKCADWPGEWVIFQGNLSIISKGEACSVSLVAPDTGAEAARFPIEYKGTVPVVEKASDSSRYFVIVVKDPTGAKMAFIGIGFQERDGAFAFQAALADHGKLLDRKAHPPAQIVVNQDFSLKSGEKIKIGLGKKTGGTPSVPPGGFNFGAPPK
UniProt A8B515: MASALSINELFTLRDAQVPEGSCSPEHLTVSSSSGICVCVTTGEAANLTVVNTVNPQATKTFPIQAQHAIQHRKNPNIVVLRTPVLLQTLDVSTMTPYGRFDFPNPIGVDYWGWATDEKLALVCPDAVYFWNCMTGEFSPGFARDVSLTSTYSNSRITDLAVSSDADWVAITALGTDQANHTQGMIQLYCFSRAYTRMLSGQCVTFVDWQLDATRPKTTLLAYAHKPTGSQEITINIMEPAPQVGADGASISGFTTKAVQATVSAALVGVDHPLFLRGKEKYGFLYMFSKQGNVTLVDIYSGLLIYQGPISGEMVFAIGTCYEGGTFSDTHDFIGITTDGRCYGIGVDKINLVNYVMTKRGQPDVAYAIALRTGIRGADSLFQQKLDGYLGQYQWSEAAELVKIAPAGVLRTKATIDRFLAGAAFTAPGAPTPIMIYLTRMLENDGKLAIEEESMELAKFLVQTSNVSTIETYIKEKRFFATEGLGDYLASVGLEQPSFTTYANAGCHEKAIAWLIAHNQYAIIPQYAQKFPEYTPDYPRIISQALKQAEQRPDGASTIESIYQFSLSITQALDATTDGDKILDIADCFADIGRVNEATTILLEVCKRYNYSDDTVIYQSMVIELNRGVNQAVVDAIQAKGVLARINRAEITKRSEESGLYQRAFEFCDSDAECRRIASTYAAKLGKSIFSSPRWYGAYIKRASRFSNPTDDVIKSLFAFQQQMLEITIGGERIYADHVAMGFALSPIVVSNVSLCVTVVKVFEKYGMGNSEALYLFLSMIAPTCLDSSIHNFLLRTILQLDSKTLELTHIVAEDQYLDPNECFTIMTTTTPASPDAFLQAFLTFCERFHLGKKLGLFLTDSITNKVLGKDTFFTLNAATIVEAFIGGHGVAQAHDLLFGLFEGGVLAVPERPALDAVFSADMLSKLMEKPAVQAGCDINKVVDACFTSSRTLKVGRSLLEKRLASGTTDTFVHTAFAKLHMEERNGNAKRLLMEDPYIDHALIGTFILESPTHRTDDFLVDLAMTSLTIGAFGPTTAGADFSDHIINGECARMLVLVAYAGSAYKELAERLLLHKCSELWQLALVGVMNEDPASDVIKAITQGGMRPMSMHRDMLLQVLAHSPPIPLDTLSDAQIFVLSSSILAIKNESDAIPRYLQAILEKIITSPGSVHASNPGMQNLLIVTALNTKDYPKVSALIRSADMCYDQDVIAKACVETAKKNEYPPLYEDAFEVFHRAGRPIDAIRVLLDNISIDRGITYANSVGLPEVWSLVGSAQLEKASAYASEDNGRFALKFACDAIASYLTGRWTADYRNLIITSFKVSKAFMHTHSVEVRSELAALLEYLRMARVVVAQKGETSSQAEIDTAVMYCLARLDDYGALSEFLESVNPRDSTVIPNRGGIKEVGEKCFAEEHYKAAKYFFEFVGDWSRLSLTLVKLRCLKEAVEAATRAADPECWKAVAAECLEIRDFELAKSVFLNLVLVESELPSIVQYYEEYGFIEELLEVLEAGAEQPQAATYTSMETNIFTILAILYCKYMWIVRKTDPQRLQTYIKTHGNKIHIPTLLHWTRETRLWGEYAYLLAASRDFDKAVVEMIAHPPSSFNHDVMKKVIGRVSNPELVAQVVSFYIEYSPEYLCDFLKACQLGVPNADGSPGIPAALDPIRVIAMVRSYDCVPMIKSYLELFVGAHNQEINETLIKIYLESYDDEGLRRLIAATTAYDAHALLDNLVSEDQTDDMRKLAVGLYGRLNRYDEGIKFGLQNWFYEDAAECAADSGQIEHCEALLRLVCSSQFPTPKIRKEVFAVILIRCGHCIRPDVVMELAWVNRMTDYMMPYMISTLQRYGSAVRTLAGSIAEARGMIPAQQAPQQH
UniProt A8BDY5: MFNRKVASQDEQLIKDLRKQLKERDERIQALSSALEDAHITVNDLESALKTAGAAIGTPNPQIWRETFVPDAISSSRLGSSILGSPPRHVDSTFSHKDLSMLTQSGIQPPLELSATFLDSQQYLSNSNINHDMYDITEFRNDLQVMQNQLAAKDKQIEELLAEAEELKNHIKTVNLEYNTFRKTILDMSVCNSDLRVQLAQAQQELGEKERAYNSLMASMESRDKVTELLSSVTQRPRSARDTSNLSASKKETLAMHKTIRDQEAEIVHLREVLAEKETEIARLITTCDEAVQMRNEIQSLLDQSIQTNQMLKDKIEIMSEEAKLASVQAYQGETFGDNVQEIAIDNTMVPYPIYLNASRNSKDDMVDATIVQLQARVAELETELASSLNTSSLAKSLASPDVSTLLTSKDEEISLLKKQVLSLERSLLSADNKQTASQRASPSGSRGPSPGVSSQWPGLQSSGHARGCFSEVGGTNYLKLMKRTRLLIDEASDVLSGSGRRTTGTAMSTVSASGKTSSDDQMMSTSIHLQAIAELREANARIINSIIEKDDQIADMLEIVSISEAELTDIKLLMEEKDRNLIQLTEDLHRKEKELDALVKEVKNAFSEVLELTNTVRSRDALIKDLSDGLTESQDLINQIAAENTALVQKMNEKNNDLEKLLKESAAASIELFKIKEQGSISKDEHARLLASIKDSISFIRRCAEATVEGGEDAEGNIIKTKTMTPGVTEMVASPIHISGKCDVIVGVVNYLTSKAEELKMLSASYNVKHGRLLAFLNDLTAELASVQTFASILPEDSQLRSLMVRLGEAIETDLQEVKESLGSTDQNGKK
UniProt A8B6P4: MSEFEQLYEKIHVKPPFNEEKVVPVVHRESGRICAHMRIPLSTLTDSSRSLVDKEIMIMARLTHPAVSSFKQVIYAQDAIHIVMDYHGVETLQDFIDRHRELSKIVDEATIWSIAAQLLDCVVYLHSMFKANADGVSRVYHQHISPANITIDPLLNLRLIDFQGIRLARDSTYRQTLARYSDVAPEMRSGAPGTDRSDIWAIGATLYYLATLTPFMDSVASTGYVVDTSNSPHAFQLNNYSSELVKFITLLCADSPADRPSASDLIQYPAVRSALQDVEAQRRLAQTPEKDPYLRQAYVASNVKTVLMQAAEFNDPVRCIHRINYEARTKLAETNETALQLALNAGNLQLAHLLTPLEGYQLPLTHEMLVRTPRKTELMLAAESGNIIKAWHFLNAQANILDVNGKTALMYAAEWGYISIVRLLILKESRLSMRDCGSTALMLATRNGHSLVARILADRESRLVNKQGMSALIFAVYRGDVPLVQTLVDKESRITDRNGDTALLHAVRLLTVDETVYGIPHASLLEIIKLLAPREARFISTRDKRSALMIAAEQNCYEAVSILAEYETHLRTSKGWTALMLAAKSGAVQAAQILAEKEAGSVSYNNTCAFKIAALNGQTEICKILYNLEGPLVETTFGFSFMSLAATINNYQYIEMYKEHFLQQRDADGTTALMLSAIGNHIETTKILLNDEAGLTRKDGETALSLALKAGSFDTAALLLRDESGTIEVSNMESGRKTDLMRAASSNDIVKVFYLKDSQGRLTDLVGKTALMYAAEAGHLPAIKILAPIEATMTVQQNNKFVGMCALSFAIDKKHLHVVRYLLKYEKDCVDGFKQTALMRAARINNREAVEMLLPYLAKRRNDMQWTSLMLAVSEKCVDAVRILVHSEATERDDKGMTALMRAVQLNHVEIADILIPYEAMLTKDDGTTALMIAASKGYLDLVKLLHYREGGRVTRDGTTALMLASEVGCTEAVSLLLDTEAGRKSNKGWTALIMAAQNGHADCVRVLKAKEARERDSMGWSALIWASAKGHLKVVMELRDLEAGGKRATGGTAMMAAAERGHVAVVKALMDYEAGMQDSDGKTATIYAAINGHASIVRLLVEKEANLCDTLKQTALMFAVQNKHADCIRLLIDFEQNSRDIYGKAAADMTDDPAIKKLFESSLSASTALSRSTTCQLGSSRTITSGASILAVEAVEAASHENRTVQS
UniProt A8BH24: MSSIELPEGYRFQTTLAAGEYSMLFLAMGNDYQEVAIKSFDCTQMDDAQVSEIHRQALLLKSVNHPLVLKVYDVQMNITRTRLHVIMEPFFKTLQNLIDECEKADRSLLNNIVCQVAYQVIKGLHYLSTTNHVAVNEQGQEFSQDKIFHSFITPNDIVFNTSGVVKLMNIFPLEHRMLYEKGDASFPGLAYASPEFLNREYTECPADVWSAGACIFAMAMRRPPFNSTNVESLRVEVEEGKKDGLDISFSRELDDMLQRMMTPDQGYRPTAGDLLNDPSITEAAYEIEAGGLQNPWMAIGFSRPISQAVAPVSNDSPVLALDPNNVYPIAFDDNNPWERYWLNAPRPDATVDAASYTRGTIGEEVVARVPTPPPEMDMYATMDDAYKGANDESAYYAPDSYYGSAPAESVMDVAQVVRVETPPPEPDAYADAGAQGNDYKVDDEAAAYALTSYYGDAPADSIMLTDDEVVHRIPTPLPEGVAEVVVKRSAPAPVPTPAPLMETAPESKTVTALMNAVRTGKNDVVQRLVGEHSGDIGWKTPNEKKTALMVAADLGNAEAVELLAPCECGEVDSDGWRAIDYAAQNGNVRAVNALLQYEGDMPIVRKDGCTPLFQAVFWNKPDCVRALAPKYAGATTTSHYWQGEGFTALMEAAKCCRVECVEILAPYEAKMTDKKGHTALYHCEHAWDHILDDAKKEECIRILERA
UniProt E2RTN5: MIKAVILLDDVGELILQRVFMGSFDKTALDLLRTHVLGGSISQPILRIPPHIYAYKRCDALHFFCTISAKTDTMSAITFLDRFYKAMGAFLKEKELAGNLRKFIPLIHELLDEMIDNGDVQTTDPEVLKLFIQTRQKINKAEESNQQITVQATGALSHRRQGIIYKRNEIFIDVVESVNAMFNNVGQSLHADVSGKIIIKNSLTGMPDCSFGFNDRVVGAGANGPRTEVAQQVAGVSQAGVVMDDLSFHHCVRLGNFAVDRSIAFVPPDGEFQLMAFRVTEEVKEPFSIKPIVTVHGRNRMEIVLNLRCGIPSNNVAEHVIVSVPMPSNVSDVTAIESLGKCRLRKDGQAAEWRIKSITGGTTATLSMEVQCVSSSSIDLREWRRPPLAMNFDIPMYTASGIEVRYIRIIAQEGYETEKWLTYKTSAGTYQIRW
UniProt E2RTT5: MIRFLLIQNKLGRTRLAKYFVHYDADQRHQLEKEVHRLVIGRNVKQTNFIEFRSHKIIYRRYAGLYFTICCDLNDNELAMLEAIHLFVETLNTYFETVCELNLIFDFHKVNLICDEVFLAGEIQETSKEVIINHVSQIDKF
UniProt A8B2Y5: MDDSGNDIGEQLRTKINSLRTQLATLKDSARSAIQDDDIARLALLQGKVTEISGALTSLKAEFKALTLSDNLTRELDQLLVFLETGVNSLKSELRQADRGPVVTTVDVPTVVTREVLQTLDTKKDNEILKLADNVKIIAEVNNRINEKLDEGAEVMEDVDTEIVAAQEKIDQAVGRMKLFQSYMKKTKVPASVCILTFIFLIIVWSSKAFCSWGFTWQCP
UniProt A8BKZ4: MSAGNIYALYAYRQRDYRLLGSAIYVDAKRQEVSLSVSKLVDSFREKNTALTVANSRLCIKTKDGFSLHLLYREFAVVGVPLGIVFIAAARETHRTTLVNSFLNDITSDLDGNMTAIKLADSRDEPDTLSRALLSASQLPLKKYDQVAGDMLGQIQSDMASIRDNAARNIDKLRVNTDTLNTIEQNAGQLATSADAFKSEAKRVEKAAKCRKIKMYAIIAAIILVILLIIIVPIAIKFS

Experiment [1] deals with GlFYVE (GL50803_16653), epitope-tagged full-length reporter (Giardia lamblia) (UniProt A8BDZ8).
The target in experiment [2] is GlPXD2 (GL50803_16595), epitope-tagged full-length reporter (Giardia lamblia) (UniProt A8B344).
Experiment [3] has as its target GlPXD6 (GL50803_24488), epitope-tagged full-length reporter (Giardia lamblia) (UniProt D3KH98).
The target in experiment [4] is GlPXD3 (GL50803_16596), epitope-tagged full-length reporter (Giardia lamblia) (UniProt A8B341).
For experiment [5], the target named is GlNECAP1 (GL50803_17195), epitope-tagged full-length reporter (Giardia lamblia) (UniProt A8BII4).
Experiment [6] deals with GlPXD1 (GL50803_7723), epitope-tagged full-length reporter (Giardia lamblia) (UniProt A8B343).
For experiment [7], the target named is GlPXD4 (GL50803_42357), epitope-tagged full-length reporter (Giardia lamblia) (UniProt A8B322).

Drawing on PMC7058353, this text covers binding for 25 substances.

These are yes or no findings as the source states them, for the method shown. Binding seen in cells or lysates may run through a third protein. Here binding means that the protein was enriched with, or labelled near, the bait; the list need not be complete. No binding means not detected with the bait.

As to “G. lamblia clathrin heavy chain (GlCHC) (from UniProt A8B515)”, the binding result in experiment [1], in experiment [2], in experiment [3], in experiment [4], in experiment [5] and in experiment [6] was “binds” throughout. The binding entry in experiment [7] is recorded as “binds”.
Regarding “G. lamblia putative clathrin light chain Gl4259 (GlCLC) (from UniProt A8BHA7)”, the figures for the binding result in experiment [2] and in experiment [6] were “binds weakly” and “binds”, respectively.
On to “GL50803_16811 (Gl16811), tentatively annotated as a ZipA protein (from UniProt A8BDY5)”, for which, in experiment [4], the binding entry was “binds”.
With “GL50803_17060 (Gl17060), ankyrin-domain carrying protein (from UniProt A8B820)”, the binding result in experiment [4] is on record as “binds”.
As to “GL50803_87677 (Gl87677), annotated as a NEK kinase (from UniProt A8B6P4)”, in experiment [4], the binding result is “binds”.
Take “Gl9605, dynamin-like protein (from UniProt A0A644F0H9)”: in experiment [4], the binding entry is on record as “binds weakly”.
Still for that read-out and setting: the value for “Gl15411, pseudokinase (predicted inactive NEK kinase) (from UniProt A8BH24)” was “binds”.
With “Gl16717, StAR-related lipid-transfer protein (from UniProt A8BE80)”, the binding result in experiment [3] and in experiment [4] was “binds” each time.
Turning to GlAP2-α (from UniProt A8BAR6), the binding result in experiment [2] was “binds”; in experiment [4] it was “binds”; in experiment [5] it was “binds”; in experiment [6], “binds weakly”.
On to GlAP2-β (from UniProt A8B9U8), for which the binding entry in experiment [2] was “binds”; in experiment [3] it was “binds”; in experiment [4] it was “binds”; in experiment [5] it was “binds”; in experiment [6], “binds”; in experiment [7], “binds weakly”.
GlAP2-μ (from UniProt E2RTN5): the binding result in experiment [2], in experiment [5] and in experiment [6] was “binds” throughout.
With GlAP2-σ (from UniProt E2RTT5), the binding result in experiment [2] is reported as “binds”.
On to “GlFYVE (GL50803_16653), epitope-tagged full-length reporter (from UniProt A8BDZ8)”, for which the binding entry in experiment [3] is given as “binds weakly”; in experiment [5] it was “binds”.
Regarding “GlNECAP1 (GL50803_17195), epitope-tagged full-length reporter (from UniProt A8BII4)”, the binding result in experiment [1] was “binds”; in experiment [2], “binds weakly”.
For “GlNSF (GL50803_114776) (from UniProt A0A644F2H1)”, the binding entry in experiment [4] is given as “binds”.
“GlPXD2 (GL50803_16595), epitope-tagged full-length reporter (from UniProt A8B344)”: the binding result in experiment [3] is “binds”; in experiment [5] it was “binds”; in experiment [6], “binds weakly”; in experiment [7], “binds weakly”.
For the substance “GlPXD3 (GL50803_16596), epitope-tagged full-length reporter (from UniProt A8B341)”, in experiment [3], the binding entry is given as “binds weakly”.
In the case of “GlPXD4 (GL50803_42357), epitope-tagged full-length reporter (from UniProt A8B322)”, the binding entry in experiment [2] is “binds weakly”.
“GlPXD6 (GL50803_24488), epitope-tagged full-length reporter (from UniProt D3KH98)”: the binding entry in experiment [1] is on record as “binds”.
“Glepsin (GL50803_3256) (from UniProt A8BIK9)”: the binding entry in experiment [1], in experiment [2], in experiment [3], in experiment [4], in experiment [5] and in experiment [6] was “no binding” in each case. Also, the binding result in experiment [7] was “no binding”.
Regarding “SNARE protein Gl7309 (from UniProt E2RTQ4)”, in experiment [4], the binding entry was “binds”.
On to “predicted SNARE protein GL50803_10013 (from UniProt A8B2Y5)”, for which, in experiment [2], the binding result is on record as “binds”.
Consider “predicted SNARE protein GL50803_14469 (from UniProt A8BKZ4)”, for which the binding entry in experiment [2] was “binds”.
For “protein GL50803_103709 carrying a predicted N-terminal BRO domain (from UniProt A8B3S4)”, in experiment [4], the binding entry was “binds”.
As to “putative SNARE protein GL50803_5785 (from UniProt A8B2J8)”, the binding entry in experiment [2] and in experiment [7] was “binds” throughout.
